From the supplement of paper PMC12067093, “Discovery and optimisation of a covalent ligand for TRIM25 and its application to targeted protein ubiquitination” (Chemical Science, 2025)
The other results are listed elsewhere or left out.

The chains behind the UniProt entries cited, without tags or fusion partners. Where a name states a change or a piece, a line headed by the entry shows the natural chain unless it says otherwise.
UniProt Q16774: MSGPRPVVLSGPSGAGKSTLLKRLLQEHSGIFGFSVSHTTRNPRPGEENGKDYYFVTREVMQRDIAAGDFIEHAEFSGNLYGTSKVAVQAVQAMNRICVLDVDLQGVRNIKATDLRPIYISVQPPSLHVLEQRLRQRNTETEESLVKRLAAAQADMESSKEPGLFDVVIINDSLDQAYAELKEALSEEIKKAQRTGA
UniProt P21266: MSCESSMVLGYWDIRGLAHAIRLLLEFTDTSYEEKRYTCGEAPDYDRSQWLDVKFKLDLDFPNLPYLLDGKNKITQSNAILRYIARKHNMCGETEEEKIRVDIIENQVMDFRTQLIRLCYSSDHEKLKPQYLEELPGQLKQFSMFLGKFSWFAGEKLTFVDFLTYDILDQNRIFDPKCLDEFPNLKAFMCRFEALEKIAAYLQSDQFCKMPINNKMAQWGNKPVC
UniProt P09211: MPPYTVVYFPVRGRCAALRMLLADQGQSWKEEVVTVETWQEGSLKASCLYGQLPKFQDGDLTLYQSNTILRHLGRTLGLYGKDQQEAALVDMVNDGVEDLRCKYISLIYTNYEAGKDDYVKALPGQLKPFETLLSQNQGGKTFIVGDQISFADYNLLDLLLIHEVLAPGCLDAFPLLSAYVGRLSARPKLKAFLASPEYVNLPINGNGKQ
UniProt Q12789: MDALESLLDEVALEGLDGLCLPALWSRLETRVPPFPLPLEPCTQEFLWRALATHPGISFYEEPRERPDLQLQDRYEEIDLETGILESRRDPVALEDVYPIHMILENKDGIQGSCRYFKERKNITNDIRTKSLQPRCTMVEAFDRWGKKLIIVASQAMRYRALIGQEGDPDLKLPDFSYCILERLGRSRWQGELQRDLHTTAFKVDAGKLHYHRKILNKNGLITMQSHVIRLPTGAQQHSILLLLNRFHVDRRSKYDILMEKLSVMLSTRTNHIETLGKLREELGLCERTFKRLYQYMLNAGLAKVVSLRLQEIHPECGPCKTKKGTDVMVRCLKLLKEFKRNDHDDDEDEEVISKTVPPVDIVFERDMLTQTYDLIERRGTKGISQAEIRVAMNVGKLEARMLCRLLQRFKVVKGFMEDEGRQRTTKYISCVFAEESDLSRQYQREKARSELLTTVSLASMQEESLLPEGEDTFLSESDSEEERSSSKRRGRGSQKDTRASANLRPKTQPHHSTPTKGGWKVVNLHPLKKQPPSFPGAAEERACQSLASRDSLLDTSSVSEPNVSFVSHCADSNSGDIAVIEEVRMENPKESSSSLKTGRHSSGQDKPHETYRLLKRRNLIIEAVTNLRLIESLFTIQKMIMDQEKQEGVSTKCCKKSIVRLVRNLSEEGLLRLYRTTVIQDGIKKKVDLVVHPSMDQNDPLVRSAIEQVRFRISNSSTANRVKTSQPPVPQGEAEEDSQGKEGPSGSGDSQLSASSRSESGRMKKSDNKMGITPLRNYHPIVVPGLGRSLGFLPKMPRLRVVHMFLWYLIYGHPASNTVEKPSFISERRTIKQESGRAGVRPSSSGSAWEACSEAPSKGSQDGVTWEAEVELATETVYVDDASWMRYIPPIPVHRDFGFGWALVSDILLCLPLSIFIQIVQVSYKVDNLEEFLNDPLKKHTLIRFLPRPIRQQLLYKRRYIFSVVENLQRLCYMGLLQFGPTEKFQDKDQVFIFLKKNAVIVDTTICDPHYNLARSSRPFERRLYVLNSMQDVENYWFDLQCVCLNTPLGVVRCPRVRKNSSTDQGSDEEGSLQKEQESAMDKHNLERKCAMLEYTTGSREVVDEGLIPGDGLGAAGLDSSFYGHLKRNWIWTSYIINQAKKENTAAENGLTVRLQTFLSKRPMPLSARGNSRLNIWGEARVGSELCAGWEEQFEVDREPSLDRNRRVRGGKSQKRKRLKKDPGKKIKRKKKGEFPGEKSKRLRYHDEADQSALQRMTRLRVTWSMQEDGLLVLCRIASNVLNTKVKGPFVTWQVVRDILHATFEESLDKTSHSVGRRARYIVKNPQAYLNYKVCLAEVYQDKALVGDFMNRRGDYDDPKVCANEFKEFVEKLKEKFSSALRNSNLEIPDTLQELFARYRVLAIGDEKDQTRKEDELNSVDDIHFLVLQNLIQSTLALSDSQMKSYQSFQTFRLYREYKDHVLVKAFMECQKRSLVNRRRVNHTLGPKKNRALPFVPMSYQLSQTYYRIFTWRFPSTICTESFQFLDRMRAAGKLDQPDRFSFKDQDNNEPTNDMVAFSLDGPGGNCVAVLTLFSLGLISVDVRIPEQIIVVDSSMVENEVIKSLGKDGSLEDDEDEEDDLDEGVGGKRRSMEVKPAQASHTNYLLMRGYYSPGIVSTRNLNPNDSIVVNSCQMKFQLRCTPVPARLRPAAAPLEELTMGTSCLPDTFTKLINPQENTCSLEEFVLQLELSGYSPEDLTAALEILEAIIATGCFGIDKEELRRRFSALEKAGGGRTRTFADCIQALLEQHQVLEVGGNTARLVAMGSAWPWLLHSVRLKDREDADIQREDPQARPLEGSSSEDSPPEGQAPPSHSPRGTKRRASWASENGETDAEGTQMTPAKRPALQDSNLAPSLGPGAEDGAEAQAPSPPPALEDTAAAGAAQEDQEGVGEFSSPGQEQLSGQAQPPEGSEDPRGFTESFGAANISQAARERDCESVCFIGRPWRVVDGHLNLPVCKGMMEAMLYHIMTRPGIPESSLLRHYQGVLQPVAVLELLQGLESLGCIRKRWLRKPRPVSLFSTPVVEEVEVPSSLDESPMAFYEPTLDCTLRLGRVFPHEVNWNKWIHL
UniProt P49841: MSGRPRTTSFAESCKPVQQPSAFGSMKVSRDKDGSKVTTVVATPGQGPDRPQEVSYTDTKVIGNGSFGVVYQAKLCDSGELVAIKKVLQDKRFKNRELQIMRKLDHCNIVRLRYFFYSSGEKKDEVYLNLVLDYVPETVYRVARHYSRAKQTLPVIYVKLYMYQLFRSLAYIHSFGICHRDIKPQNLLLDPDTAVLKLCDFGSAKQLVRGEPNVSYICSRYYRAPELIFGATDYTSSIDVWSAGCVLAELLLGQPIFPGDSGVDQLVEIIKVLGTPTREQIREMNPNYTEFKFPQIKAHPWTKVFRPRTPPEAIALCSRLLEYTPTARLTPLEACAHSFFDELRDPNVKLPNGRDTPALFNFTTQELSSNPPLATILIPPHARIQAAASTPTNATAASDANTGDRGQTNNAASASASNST
UniProt Q7Z2K8: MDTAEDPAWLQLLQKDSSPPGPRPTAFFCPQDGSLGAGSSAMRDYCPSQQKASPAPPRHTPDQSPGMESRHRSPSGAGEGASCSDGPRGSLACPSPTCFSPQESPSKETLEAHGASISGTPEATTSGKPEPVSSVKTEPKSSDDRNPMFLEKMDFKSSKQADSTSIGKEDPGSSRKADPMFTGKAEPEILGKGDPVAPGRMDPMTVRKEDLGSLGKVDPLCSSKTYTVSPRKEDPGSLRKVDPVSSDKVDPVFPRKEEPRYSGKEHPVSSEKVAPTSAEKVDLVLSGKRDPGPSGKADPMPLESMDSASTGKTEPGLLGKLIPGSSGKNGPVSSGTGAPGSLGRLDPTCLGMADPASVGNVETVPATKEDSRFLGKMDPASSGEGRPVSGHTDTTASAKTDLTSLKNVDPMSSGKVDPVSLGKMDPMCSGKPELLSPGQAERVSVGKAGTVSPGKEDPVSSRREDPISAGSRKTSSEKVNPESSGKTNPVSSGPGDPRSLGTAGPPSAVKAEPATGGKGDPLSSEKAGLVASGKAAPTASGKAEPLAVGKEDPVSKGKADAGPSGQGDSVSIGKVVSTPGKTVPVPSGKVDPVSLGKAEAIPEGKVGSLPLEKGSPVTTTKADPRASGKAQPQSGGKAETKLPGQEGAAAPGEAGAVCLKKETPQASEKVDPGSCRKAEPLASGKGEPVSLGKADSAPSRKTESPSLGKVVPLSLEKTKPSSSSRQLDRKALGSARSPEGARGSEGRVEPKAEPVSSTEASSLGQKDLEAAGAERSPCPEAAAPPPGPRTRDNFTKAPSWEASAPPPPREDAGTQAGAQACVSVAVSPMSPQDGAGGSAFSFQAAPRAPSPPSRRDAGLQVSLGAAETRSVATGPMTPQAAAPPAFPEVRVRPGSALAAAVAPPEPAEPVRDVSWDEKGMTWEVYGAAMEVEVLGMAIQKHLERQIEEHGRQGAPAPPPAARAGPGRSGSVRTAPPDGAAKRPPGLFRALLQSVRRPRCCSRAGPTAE
UniProt Q9BQ67, whole entry, looked up: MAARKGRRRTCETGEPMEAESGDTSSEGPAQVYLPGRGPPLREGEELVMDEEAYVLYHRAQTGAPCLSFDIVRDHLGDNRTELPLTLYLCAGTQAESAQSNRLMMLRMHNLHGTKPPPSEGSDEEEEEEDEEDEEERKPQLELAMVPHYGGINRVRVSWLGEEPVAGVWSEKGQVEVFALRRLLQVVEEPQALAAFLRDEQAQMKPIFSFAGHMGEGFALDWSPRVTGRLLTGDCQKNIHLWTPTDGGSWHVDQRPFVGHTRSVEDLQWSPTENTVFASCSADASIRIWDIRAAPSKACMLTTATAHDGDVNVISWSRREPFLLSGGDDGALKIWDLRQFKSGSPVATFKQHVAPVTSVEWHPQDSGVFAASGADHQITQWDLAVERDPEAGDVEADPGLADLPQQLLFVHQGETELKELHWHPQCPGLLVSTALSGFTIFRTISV
UniProt P78347: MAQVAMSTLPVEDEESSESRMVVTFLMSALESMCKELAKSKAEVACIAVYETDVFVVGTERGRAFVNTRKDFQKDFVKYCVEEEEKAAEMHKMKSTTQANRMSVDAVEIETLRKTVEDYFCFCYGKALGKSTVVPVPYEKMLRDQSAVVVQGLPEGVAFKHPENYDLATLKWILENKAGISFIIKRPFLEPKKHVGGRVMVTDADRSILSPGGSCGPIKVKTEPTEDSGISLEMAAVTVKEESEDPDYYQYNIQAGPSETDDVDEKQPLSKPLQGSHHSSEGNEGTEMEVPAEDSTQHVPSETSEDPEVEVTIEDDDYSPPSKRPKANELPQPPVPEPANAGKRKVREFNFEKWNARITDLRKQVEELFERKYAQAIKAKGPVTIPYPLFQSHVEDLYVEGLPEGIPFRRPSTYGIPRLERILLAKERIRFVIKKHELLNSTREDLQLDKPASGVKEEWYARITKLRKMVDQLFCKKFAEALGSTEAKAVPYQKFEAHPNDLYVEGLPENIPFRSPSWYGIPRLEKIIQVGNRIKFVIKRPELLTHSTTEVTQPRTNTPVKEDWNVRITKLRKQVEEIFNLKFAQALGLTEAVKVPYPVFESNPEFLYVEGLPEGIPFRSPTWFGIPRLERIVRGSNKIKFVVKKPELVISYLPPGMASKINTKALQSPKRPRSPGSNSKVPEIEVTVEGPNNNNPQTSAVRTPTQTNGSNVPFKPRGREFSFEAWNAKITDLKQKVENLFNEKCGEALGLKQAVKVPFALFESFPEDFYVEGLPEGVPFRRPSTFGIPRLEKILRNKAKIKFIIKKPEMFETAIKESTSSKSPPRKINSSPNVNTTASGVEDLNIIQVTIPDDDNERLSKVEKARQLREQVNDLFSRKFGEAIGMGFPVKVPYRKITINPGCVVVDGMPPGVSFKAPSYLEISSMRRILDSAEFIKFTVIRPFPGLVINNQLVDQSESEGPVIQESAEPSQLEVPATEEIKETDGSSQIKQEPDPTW
UniProt Q13098: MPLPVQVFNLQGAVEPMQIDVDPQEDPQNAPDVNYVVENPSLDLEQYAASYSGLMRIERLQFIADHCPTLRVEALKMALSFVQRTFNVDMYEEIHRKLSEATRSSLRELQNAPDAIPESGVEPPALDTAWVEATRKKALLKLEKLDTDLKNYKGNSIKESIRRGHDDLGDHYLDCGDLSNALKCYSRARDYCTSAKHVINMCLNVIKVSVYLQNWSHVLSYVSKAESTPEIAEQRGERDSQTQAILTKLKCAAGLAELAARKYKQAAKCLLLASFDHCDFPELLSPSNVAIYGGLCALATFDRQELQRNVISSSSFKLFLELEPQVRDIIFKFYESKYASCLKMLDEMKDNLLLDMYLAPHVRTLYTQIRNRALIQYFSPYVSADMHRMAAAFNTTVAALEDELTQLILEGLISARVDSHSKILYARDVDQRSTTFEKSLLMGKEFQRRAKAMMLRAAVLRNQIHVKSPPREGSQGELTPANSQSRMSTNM
UniProt Q8WW33: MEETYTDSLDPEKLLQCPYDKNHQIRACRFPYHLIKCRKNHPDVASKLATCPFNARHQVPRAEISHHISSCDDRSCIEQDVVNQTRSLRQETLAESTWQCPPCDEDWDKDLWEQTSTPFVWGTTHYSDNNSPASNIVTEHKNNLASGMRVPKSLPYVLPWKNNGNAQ
UniProt P52657, whole entry, looked up: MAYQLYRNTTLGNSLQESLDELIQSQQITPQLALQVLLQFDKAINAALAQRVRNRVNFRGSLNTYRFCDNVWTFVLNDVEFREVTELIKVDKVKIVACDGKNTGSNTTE

Compound: CC1Cc2ccccc2N1C(=O)C1CCCN(C1)C(=O)CCl (mixture of isomers) [TRIM25 ligand 11 (diastereomer mixture)]
Assay: probe-labelled cysteine peptide fold change vs DMSO (competition) (log2 fold change); higher = less target engagement (more negative = stronger competition)
Details: 50 µM; THP-1; incubation time: 4 h
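Also: competitive chemoproteomic profiling in live THP-1 cells with an iodoacetamide desthiobiotin (IA-DTB) probe, comparing probe-labelled peptide intensities in compound-treated cells against DMSO-treated controls.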

| Target | probe-labelled cysteine peptide fold change |
| --- | --- |
| GUK1_Q16774_98_ICVLDVDLQGVR (UniProt Q16774) | 0.127 |
| GTPBP8_Q8N3Z3_114_IDHAPDLPRPEVCFIGR (UniProt Q8N3Z3) | 0.0691 |
| GSTM3_P21266_39_YTCGEAPDYDR (UniProt P21266) | -0.1 |
| GSTP1_P09211_102_DQQEAALVDMVNDGVEDLRCK (UniProt P09211) | -0.324 |
| GTF3C1_Q12789_1783_TFADCIQALLEQHQVLEVGGNTAR (UniProt Q12789) | -0.00702 |
| GRAMD1A_Q96CP6_456_RGPQAGGCVVDSEVLTQGIPYQDYFYTAHR (UniProt Q96CP6) | -0.123 |
| GTPBP4_Q9BZE4_261_AAVLYVMDLSEQCGHGLR (UniProt Q9BZE4) | 0.192 |
| GRN_P28799_178_CITPTGTHPLAK (UniProt P28799) | 0.146 |
| GSK3B_P49841_335_LTPLEACAHSFFDELRDPNVK (UniProt P49841) | 0.000309 |
| GSDME_O60443_156_NEVLCVLTQK (UniProt O60443) | 0.202 |
| GPRIN1_Q7Z2K8_221_VDPLCSSK (UniProt Q7Z2K8) | -0.0855 |
| GZF1_Q9H116_282_NEGCQAGAELEELSK (UniProt Q9H116) | -0.196 |
| GSTM3_P21266_178_CLDEFPNLK (UniProt P21266) | -0.128 |
| GPR108_Q9NPR9_104_DFQDCPLQK (UniProt Q9NPR9) | -0.0183 |
| HADHA_P40939_322_TGIEQGSDAGYLCESQK (UniProt P40939) | -0.0933 |
| GSK3B_P49841_317_TPPEAIALCSR (UniProt P49841) | 0.055 |
| GRWD1_Q9BQ67_90_DHLGDNRTELPLTLYLCAGTQAESAQSNR (UniProt Q9BQ67) | 0.0239 |
| GTF2I_P78347_903_KITINPGCVVVDGMPPGVSFK (UniProt P78347) | -0.179 |
| GSR_P00390_134_VMWNTAVHSEFMHDHADYGFPSCEGK (UniProt P00390) | 0.00373 |

| Target | probe-labelled cysteine peptide fold change |
| --- | --- |
| GYS1_P13807_444_QSFPPVCTHNMLDDSSDPILTTIRR (UniProt P13807) | -0.147 |
| GSN_P06396_228_ATEVPVSWESFNNGDCFILDLGNNIHQWCGSNSNR (UniProt P06396) | -0.0796 |
| GTF3C1_Q12789_853_AGVRPSSSGSAWEACSEAPSK (UniProt Q12789) | -0.225 |
| GSTP1_P09211_48_ASCLYGQLPK (UniProt P09211) | 0.0273 |
| HARS_P12081_235_TICSSVDK (UniProt P12081) | 0.149 |
| GTPBP3_Q969Y2_188_QLDGELGHLCR (UniProt Q969Y2) | -0.000798 |
| GRK4_P32298_204_GGFGEVCACQVR (UniProt P32298) | 0.0931 |
| GTF2I_P78347_46_SKAEVACIAVYETDVFVVGTER (UniProt P78347) | 0.0217 |
| GPS1_Q13098_67_LQFIADHCPTLR (UniProt Q13098) | 0.0621 |
| GRWD1_Q9BQ67_299_ACMLTTATAHDGDVNVISWSR (UniProt Q9BQ67) | -0.105 |
| GTF3C4_Q9UKN8_376_CVPLYHPYQK (UniProt Q9UKN8) | 0.209 |
| GTSF1_Q8WW33_51_LATCPFNAR (UniProt Q8WW33) | -0.231 |
| HAT1_O14929_376_CLRPEELTNQMNQIEISMQHEQLEESFQELVEDYRR (UniProt O14929) | -0.111 |
| GPS1_Q13098_175_RGHDDLGDHYLDCGDLSNALK (UniProt Q13098) | -0.132 |
| HACE1_Q8IYU2_172_TELLHDLVQHVSDVDVEDAMGQTALHVACQNGHK (UniProt Q8IYU2) | -0.027 |
| GTF2A2_P52657_98_IVACDGK (UniProt P52657) | -0.151 |
| GTF3C3_Q9Y5Q9_172_GEREEAILMCMEIIR (UniProt Q9Y5Q9) | 0.106 |
| GSE1_Q14687_1151_QVLQTQCR (UniProt Q14687) | 0.0342 |
